No constants are given. Whether binding was seen depends on the method and setting. Some entries that bind do so weakly or less than the wild type. For part of these data: Sequences can lack the tags named with a protein.
How the values were obtained:
Assay in all cases: pull-down; MBP or MBP-tagged proteins immobilised on amylose resin; equimolar purified Sec10(145–827) (1 µM) added; 10 mM HEPES pH 7, 100 mM NaCl, 0.1% NP-40, 1 mM DTT; 1 h at 4°C; three washes; Western blot with α-His5 and α-MBP; both purified
[1] = molecular target: T1, MBP-Sec6p (residues 1–805) (yeast) (UniProt P32844)
T1 sequence: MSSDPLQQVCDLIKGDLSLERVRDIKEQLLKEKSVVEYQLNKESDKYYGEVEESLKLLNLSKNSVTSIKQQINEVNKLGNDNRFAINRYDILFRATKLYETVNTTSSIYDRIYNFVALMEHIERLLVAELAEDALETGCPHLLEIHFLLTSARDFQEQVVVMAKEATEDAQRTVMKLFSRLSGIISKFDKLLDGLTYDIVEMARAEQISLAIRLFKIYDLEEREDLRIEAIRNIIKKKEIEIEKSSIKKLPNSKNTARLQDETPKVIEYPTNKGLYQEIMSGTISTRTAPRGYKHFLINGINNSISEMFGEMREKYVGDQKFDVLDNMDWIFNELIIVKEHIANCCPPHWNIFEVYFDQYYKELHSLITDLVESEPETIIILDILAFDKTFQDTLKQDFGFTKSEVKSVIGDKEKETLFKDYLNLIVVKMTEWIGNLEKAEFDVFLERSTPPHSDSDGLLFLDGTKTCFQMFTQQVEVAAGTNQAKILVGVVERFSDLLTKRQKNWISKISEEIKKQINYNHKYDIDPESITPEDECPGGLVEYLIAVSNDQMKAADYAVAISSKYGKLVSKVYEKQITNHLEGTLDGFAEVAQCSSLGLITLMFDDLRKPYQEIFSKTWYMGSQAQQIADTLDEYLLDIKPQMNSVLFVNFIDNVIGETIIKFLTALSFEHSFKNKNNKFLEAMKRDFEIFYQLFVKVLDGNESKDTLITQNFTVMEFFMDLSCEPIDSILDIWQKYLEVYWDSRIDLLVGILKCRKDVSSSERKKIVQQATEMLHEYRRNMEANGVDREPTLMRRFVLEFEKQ

Chains of the proteins cited; added tags and fusions are not shown. Residues count along the entry.
UniProt P19658, residues 63-623: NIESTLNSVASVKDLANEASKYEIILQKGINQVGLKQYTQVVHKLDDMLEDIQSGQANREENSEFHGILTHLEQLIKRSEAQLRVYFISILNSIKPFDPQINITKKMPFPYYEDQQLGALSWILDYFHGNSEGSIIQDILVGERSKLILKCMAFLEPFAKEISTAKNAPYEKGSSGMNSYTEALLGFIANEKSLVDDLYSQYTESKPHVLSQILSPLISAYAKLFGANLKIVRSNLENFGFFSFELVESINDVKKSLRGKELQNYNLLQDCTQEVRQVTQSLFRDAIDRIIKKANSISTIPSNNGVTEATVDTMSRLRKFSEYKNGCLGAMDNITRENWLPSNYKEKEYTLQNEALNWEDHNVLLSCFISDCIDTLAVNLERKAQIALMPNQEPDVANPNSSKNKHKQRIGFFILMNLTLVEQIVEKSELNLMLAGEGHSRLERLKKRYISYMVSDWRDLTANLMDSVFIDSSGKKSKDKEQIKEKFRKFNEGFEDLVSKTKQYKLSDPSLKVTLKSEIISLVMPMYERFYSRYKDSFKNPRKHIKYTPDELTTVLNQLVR
UniProt P38261, residues 523-753: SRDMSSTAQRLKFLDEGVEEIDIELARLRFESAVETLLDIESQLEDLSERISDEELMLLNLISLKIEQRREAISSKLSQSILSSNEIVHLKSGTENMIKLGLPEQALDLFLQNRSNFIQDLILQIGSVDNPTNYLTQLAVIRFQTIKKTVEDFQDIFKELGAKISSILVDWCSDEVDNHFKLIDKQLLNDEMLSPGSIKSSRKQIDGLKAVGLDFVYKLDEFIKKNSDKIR

[2] = molecular target: MBP-Exo70p (residues 63–623) (yeast) (UniProt P19658)
[3] = molecular target: MBP-Exo84CT (residues 523–753) (yeast) (UniProt P38261)

binding [1]: binds weakly | binding [2]: binds weakly | binding [3]: binds weakly
B1: Sec10(145–827) (domain or fragment, UniProt Q06245 145-827)
chain: GDKLETAIKKKQNYIQSVELIRRYNDFYSMGKSDIVEQLRLSKNWKLNLKSVKLMKNLLILSSKLETSSIPKTINTKLVIEKYSEMMENELLENFNSAYRENNFTKLNEIAIILNNFNGGVNVIQSFINQHDYFIDTKQIDLENEFENVFIKNVKFKEQLIDFENHSVIIETSMQNLINDVETVIKNESKIVKRVFEEKATHVIQLFIQRVFAQKIEPRFEVLLRNSLSISNLAYVRILHGLFTLFGKFTKSLIDYFQLLEIDDSNQILSTTLEQCFADLFSHYLYDRSKYFGIEKRSLEAILVDMTSKFTVNYDKEINKRVLLDKYKEKLSTNVDAFMHSPRGNTHSRQDSTSRSKLSQFNSFLKTHLDKDHLSLNRTNTLSDSFNNSSSSTQYDVANNSSSLVNSSFTASDIDNSPNSPANYSLNDVDSMLKCVVESTARVMELIPNKAHLYILEILKIMFLGIVDSYMEIALEVAYWKICKVDINKTAGVVNLNFLKFISMSTEILDLLSISIKSIFLPLLNNSPEIKAQIIEMTNSQIQKMEILINIILQETITVISTKFSAILCKQKKKDFVPKSQELLDQDTLPAIEIVNILNLIFEQSSKFLKGKNLQTFLTLIGEELYGLLLSHYSHFQVNSIGGVVVTKDIIGYQTAIEDWGVASLIDKFATLRELANLFTVQP
